# PubChem BioAssay AID1224826 – NIAID | 2016
# Purpose: 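Regulators of Tlr4 signalling leading to Tnf-alpha expression in macrophages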 (primary screen)
# System: RAW264.7 G9 macrophages from mouse bearing reporters for p65 (GFP) and the Tnf promoter (mCherry)
# Reagents: siRNA pool against mouse genes, 100 nM
# Duration: 16 h of LPS stimulation, after 2 days of siRNA transfection
# Challenge: bacterial lipopolysaccharide (Salmonella minnesota R595), 10 ng/ml
# Detection: 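Imaged Tnf reporter mCherry in nuclei, minus background, normalised per plate to the median and expressed as robust z-scores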
# Direction: Tnf reporter robust z-score: higher = stronger Tnf promoter reporter signal after LPS
# Active means: 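Called active when robust z-score is at most -1.3, matching the median of the Tlr4 knock-down control, or over 3; control wells and wells with under 50 cells never active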
# Calls: active = Tnf reporter clearly lowered or raised; inactive = no clear change in Tnf reporter
# In all, the deposit lists about 17,000 reagents; this is a random part of them. About 1,110 of them (6.6%) count as active. 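Active means lowered or raised reporter signal; replicate intensities are raw and not normalised per plate.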 Unmarked entries are inactive. Further read-outs or replicates are left out here. Reagent sequences are not shown.
The first 2 entries, ahead of the listing:
gene symbol,Tnf reporter robust z-score,fewer than 50 cells in well
Slc47a1,-0.05,enough cells in well
Rundc3a,0.42,enough cells in well

Results, repeating the preview:
gene symbol,Tnf reporter robust z-score,fewer than 50 cells in well
Slc47a1,-0.05,enough cells in well
Rundc3a,0.42,enough cells in well
Cd44,0.07,enough cells in well
Cdk14,0.57,enough cells in well
Or4b1,0.61,enough cells in well
Rnf152,0.93,enough cells in well
Ccdc40,0.16,enough cells in well
Rnf103,0.43,enough cells in well
Dele1,,fewer than 50 cells per well; well left out of calls
Slfn1,,fewer than 50 cells per well; well left out of calls
Vps36,3.05 (active),enough cells in well
Vmn1r83,0.6,enough cells in well
Tgoln2,0.6,enough cells in well
Il1r1,-1.03,enough cells in well
A530021J07Rik,1.46,enough cells in well
Mbnl3,-1.55 (active),enough cells in well
Rnf208,-0.86,enough cells in well
Ncan,-0.47,enough cells in well
Selenow,1.81,enough cells in well
Slc1a1,-0.08,enough cells in well
Mmp17,0.61,enough cells in well
Elane,-0.22,enough cells in well
Pcdhb8,-1.75 (active),enough cells in well
Shroom2,1.81,enough cells in well
Lamc3,0.24,enough cells in well
Or6c35,,fewer than 50 cells per well; well left out of calls
Coq9,2.28,enough cells in well
Ndst4,0.5,enough cells in well
Ucp3,0.6,enough cells in well
Cdk5rap3,1.56,enough cells in well
Ell2,-1.63 (active),enough cells in well
Eps15,1.56,enough cells in well
Kdm1a,0.56,enough cells in well
Xcr1,0.06,enough cells in well
Vmn1r74,1.23,enough cells in well
Pqbp1,,fewer than 50 cells per well; well left out of calls
Dnajb9,0.56,enough cells in well
Pin1,-0.07,enough cells in well
Nectin4,-0.56,enough cells in well
Zfp148,0.55,enough cells in well
Tcn2,-0.1,enough cells in well
Rhox4b,3.53 (active),enough cells in well
Ccdc60,0.82,enough cells in well
Armc8,-0.22,enough cells in well
Gabrd,1.48,enough cells in well
Ucma,0.61,enough cells in well
Wwox,-0.74,enough cells in well
Neurl1b,-0.21,enough cells in well
Gp5,-0.54,enough cells in well
Ctnnd1,0.75,enough cells in well
A630026L20,-0.43,enough cells in well
Or9k2b,3.83 (active),enough cells in well
Proc,-1.32 (active),enough cells in well
Mmgt2,-0.31,enough cells in well
Tsg101,-0.92,enough cells in well
Pla2g10,0,enough cells in well
Yy1,-0.92,enough cells in well
Cdh15,0.37,enough cells in well
